Structures can show the parent of a compound that is named as a salt. For at least one compound, name, drawing or mass did not settle the structure.
Assay: Vapor sorption analysis (DVS), hygroscopicity
Type: physicochemical
Conditions: from 0 to 95% RH

## COc1cccc2cc(-c3nc([C@H]4CC[C@H](C(=O)O)CC4)n4ncnc(N)c34)[nH]c12 [Example 3, trans-4-[4-amino-5-(7-methoxy-1H-indol-2-yl)imidazo[5,1-f][1,2,4]triazin-7-yl]cyclohexanecarboxylic acid sodium salt]
  hygroscopicity, weight gain (DVS): 37%

Source: patent US8557814B2, “mTOR inhibitor salt forms” (OSI Pharmaceuticals, LLC, priority 2008, dated 2013)
